Source: the supplement of paper PMC10849652
Some of the results follow.

Chains of the proteins cited; added tags and fusions are not shown. Lines headed by an entry give the natural chain unless they say otherwise; changes in a name come on top.
UniProt O75569: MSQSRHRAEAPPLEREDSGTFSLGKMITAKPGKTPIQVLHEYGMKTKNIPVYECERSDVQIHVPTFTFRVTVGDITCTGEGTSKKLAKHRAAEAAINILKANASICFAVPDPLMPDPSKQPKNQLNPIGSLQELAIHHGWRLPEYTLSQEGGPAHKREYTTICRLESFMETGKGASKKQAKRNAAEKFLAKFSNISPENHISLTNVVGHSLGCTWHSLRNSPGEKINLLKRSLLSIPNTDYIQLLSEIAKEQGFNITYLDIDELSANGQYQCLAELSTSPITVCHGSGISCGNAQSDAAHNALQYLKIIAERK
UniProt P31321, whole entry, looked up: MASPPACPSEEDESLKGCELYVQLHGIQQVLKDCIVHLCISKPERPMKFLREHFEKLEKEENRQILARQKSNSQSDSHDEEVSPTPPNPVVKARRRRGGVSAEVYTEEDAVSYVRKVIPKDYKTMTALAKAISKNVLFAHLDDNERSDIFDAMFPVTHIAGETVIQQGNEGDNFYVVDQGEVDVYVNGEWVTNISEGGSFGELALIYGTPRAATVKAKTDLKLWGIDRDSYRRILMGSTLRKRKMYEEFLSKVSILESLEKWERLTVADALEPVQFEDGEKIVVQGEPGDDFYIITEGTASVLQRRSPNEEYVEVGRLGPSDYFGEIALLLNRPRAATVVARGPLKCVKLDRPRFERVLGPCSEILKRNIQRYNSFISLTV
UniProt Q05655: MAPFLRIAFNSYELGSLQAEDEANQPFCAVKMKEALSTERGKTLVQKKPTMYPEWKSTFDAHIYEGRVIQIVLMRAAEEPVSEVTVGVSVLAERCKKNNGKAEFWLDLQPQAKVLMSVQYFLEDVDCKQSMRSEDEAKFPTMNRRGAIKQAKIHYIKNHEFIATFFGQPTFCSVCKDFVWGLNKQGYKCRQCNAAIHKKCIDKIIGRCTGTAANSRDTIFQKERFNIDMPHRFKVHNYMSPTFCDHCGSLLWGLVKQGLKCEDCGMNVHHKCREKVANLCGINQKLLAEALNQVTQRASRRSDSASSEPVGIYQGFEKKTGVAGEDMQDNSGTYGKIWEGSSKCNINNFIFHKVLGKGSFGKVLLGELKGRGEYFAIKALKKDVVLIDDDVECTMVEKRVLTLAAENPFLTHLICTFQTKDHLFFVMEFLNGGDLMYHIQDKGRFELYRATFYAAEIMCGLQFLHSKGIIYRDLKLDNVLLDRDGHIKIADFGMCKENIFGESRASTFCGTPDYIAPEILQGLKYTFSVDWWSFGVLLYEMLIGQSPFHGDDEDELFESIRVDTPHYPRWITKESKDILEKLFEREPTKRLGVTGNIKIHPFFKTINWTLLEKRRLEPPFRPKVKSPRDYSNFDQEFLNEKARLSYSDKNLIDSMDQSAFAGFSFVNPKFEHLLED
UniProt Q13131: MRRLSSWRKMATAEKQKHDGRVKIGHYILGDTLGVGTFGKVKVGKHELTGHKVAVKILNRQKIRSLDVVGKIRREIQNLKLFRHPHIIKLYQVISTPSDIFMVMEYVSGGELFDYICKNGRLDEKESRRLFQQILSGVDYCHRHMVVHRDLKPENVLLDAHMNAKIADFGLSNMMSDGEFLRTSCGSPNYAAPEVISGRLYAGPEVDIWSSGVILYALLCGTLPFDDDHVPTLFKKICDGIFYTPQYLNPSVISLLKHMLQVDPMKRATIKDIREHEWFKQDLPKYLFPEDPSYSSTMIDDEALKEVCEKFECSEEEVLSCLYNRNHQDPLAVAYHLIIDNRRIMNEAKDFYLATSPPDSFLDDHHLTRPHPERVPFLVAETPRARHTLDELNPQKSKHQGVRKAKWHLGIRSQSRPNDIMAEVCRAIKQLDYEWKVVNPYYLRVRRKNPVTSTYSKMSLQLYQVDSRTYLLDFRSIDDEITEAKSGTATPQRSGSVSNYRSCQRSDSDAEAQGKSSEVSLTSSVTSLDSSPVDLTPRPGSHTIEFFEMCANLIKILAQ
UniProt P49642: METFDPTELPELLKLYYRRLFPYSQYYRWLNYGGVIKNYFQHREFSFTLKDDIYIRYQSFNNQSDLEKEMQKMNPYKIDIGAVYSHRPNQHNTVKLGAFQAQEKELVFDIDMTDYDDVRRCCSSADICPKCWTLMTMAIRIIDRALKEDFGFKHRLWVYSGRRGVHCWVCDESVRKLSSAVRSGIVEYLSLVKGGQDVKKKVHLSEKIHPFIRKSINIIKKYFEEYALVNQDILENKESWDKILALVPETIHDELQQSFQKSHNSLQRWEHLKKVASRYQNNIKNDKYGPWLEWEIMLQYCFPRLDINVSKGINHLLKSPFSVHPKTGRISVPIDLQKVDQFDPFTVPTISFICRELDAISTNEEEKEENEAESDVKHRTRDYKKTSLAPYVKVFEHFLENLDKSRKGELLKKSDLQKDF
UniProt Q96C90: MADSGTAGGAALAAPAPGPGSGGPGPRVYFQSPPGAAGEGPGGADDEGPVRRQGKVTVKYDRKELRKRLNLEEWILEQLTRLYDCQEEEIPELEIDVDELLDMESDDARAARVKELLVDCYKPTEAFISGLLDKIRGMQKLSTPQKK
UniProt P30041: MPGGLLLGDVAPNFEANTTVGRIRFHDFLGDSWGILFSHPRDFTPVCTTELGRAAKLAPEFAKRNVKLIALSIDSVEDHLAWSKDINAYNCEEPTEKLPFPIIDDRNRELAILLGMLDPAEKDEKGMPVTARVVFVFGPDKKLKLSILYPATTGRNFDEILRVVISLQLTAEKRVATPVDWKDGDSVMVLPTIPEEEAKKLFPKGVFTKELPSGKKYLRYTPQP
UniProt K7ELL7: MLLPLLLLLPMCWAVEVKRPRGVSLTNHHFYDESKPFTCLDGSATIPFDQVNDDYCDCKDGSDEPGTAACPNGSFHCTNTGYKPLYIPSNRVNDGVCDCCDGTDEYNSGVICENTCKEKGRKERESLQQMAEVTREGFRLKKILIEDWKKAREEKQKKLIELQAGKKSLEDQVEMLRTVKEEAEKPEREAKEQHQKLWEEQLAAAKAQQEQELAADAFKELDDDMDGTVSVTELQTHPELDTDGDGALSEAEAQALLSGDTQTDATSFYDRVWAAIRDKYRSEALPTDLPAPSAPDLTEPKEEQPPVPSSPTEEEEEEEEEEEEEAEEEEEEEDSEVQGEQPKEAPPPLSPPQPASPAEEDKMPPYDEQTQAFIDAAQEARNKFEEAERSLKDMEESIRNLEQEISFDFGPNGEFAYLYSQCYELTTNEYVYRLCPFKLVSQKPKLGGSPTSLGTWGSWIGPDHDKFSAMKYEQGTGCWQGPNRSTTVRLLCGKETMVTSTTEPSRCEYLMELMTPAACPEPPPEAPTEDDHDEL
UniProt Q15172: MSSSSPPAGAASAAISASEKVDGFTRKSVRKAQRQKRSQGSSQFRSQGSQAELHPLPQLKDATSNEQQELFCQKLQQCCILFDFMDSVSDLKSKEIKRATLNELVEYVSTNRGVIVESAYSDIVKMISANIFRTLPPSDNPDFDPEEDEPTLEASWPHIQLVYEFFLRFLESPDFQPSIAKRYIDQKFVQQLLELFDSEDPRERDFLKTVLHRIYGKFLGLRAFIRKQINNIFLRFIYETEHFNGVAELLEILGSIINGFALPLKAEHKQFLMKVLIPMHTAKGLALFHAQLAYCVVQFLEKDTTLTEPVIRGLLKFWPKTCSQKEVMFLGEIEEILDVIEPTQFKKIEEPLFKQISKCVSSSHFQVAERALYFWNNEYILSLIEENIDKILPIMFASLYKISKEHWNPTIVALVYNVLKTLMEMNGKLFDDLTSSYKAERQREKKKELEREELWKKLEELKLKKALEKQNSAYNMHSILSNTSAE
UniProt Q9NY27: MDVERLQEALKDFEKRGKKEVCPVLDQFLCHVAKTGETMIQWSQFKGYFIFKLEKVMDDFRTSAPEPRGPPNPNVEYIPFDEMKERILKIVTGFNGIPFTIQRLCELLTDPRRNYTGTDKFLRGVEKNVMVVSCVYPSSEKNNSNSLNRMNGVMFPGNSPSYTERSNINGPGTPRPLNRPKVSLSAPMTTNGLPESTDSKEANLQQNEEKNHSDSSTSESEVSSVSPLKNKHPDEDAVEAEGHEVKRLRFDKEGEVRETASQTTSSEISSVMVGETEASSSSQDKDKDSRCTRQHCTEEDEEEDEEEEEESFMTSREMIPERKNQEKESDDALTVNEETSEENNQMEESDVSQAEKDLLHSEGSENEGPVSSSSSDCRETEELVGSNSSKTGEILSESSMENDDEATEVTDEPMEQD
UniProt Q96M27: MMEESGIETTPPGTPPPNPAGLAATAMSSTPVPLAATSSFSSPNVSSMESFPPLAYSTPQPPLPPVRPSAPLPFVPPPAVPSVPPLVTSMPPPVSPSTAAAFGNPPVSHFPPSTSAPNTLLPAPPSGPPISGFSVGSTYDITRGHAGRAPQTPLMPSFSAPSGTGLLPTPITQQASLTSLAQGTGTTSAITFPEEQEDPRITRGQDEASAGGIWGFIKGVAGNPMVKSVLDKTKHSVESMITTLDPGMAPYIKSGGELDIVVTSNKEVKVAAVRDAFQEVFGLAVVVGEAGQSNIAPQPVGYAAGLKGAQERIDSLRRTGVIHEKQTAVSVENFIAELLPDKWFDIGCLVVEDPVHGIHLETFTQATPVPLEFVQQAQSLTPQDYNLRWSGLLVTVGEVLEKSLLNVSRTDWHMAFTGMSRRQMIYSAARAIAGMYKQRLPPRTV
UniProt Q04759: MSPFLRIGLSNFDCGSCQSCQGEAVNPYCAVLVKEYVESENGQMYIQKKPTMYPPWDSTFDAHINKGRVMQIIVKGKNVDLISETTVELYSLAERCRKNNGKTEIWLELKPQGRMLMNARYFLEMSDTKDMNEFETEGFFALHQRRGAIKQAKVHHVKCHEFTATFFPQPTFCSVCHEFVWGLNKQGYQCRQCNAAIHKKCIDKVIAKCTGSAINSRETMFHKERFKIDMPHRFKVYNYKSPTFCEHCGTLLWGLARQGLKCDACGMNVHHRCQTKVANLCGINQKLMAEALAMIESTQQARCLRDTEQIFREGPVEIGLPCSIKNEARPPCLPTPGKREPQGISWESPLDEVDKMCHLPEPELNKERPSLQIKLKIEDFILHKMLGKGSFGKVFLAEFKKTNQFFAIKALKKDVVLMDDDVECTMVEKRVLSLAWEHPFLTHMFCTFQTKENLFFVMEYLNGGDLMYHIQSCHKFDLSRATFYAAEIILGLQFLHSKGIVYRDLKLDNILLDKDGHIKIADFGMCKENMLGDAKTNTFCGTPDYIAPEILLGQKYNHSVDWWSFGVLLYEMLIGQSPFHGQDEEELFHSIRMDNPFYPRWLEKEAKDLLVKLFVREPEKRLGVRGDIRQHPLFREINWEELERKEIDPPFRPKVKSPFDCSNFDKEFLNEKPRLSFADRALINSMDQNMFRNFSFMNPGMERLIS
UniProt Q9Y570: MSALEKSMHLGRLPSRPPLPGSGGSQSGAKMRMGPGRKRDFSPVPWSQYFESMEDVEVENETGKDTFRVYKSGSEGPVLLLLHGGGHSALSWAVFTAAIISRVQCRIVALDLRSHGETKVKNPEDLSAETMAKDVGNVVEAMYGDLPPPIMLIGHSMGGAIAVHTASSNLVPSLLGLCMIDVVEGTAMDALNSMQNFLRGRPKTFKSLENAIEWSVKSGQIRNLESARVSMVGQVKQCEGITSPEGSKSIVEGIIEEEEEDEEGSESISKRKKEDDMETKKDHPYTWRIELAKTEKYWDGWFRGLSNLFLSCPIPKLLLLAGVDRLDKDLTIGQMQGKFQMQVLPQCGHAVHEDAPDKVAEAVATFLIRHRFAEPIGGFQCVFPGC
UniProt P62714, whole entry, looked up: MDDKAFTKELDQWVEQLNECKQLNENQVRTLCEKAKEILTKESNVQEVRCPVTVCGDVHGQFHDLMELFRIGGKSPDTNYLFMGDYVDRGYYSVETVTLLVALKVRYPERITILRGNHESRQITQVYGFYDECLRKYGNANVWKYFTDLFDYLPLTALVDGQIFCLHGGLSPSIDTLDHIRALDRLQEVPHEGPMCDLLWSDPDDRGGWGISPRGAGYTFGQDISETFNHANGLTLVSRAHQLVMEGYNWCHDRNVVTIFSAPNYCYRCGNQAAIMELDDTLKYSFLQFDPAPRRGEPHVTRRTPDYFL
UniProt Q8TAP8: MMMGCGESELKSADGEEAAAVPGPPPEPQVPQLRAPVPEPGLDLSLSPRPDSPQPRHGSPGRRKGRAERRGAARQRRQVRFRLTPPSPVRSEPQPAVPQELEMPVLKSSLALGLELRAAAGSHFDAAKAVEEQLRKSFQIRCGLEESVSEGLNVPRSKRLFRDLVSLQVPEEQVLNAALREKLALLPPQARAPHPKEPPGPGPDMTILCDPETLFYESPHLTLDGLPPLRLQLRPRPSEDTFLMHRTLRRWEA
UniProt P36873, whole entry, looked up: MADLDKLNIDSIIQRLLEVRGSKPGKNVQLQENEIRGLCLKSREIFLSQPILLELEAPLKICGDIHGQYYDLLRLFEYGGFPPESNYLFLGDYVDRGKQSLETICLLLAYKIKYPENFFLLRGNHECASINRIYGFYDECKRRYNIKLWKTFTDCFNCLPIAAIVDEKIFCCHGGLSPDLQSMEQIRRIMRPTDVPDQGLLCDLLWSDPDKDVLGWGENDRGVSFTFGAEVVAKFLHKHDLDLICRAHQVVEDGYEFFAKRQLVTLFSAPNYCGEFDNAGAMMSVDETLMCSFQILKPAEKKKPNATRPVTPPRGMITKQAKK

Columns and labels:
Test in all cases: log2 fold change, soluble protein after heating vs DMSO (PISA); higher = thermal stabilisation; K562 cells, 10 uM, 30 min; active = over 0.2 and 3.5 SD of the protein, either way, in both replicates (recomputed)
[1] = compound: COC1=CC=C(C=C1)CN2C=CC3=C2C=C(C=C3)C(=O)NO
In short: (§1)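 Soluble protein was quantified by TMTpro 16plex LC-MS/MS after channel sums were equalised. It was obtained as the supernatant after 21,000xg for 90 min from pooled aliquots of K562 cells (2×10^6 cells/mL, 10 μM compound, 30 min) heated for 3 min across 48°C-58°C and extracted in PBS with 0.5% NP-40 at 4°C. Thermal stability values are relative to control samples and come from duplicates. They are given as log2 fold changes.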

filanesib = compound: CON(C)C(=O)N1N=C(c2cc(F)ccc2F)S[C@@]1(CCCN)c1ccccc1 [filanesib]
In short: as §1

zotarolimus = compound: CO[C@H]1C[C@@H]2CC[C@@H](C)[C@@](O)(O2)C(=O)C(=O)N2CCCC[C@H]2C(=O)O[C@H]([C@H](C)C[C@@H]2CC[C@H](n3cnnn3)[C@H](OC)C2)CC(=O)[C@H](C)/C=C(\C)[C@@H](O)[C@@H](OC)C(=O)[C@H](C)C[C@H](C)/C=C/C=C/C=C/1C [zotarolimus]
In short: as §1

idasanutlin = compound: COc1cc(C(=O)O)ccc1NC(=O)[C@@H]1N[C@@H](CC(C)(C)C)[C@](C#N)(c2ccc(Cl)cc2F)[C@H]1c1cccc(Cl)c1F [idasanutlin]
In short: as §1

alisertib = compound: COc1cc(Nc2ncc3c(n2)-c2ccc(Cl)cc2C(c2c(F)cccc2OC)=NC3)ccc1C(=O)O [alisertib]
In short: as §1

[2] = compound: COc1cc2nc(-c3cc(F)ccc3O)nc(N[C@@H]3CNC[C@H]3C(C)(C)O)c2cc1OC
In short: as §1

gefitinib = compound: COc1cc2ncnc(Nc3ccc(F)c(Cl)c3)c2cc1OCCCN1CCOCC1 [gefitinib]
In short: as §1

[3] = compound: COc1cccc2cc(-c3nc([C@H]4CC[C@H](C(=O)O)CC4)n4ncnc(N)c34)[nH]c12
In short: as §1

lapatinib = compound: CS(=O)(=O)CCNCc1ccc(-c2ccc3ncnc(Nc4ccc(OCc5cccc(F)c5)c(Cl)c4)c3c2)o1 [lapatinib]
In short: as §1

pictilisib = compound: CS(=O)(=O)N1CCN(Cc2cc3nc(-c4cccc5[nH]ncc45)nc(N4CCOCC4)c3s2)CC1 [pictilisib]
In short: as §1

Measured: log2 fold change

PRKRA (UniProt O75569)
inactive: [1] -0.176 | filanesib 0.279 | zotarolimus 0.074 | idasanutlin 0.238 | alisertib -0.134 | [2] -0.111 | gefitinib -0.037 | [3] -0.408 | lapatinib 0.157 | pictilisib -0.258

PPP3CC isoform 3 (UniProt P48454)
inactive: [1] 0.002 | filanesib -0.059 | zotarolimus -0.015 | idasanutlin -0.099 | alisertib -0.058 | [2] 0.009 | gefitinib 0.005 | [3] 0.06 | lapatinib -0.037 | pictilisib 0.037

PRKAR1B (UniProt P31321)
inactive: [1] 0.1 | filanesib 0.034 | zotarolimus 0.011 | idasanutlin -0.099 | alisertib 0.02 | [2] 0.027 | gefitinib 0.051 | [3] -0.162 | lapatinib 0.004 | pictilisib 0.199

PRKCD (UniProt Q05655)
inactive: [1] -0.019 | filanesib -0.004 | zotarolimus 0.032 | idasanutlin -0.017 | alisertib 0.037 | [2] -0.003 | gefitinib -0.002 | [3] 0.074 | lapatinib 0.02 | pictilisib 0.026

PPP1R18 (UniProt Q6NYC8)
inactive: [1] 0.039 | filanesib 0.046 | zotarolimus 0.04 | idasanutlin 0 | alisertib -0.039 | [2] 0.1 | gefitinib 0.087 | [3] 0.032 | lapatinib 0.002 | pictilisib -0.02

PRKAA1 isoform 2 (UniProt Q13131)
inactive: [1] 0.029 | filanesib -0.043 | zotarolimus -0.007 | idasanutlin 0.013 | alisertib -0.047 | [2] -0.014 | gefitinib 0.004 | [3] 0.016 | lapatinib -0.008 | pictilisib -0.03

PPP3CB isoform 4 (UniProt P16298)
inactive: [1] -0.128 | filanesib 0.017 | zotarolimus -0.024 | idasanutlin -0.1 | alisertib -0.009 | [2] 0.068 | gefitinib -0.004 | [3] 0.047 | lapatinib -0.041 | pictilisib 0.015

PRIM1 (UniProt P49642)
inactive: [1] 0.04 | filanesib 0.001 | zotarolimus 0.073 | idasanutlin -0.06 | alisertib 0.052 | [2] -0.012 | gefitinib 0.011 | [3] -0.053 | lapatinib 0.007 | pictilisib 0.021

PPP1R8 (UniProt Q12972)
inactive: [1] 0.073 | filanesib -0.024 | zotarolimus 0.013 | idasanutlin 0.009 | alisertib -0.083 | [2] 0.001 | gefitinib 0.008 | [3] 0.058 | lapatinib 0.009 | pictilisib -0.012

PPP2R5C isoform 5 (UniProt Q13362)
inactive: [1] 0.022 | filanesib -0.126 | zotarolimus 0.031 | idasanutlin -0.137 | alisertib -0.11 | [2] 0.082 | gefitinib -0.018 | [3] -0.012 | lapatinib 0 | pictilisib 0.111

PPP1R14B (UniProt Q96C90)
inactive: [1] 0.039 | filanesib 0.082 | zotarolimus 0.203 | idasanutlin -0.036 | alisertib -0.002 | [2] -0.195 | gefitinib 0.044 | [3] 0.003 | lapatinib 0.124

PRDX6 (UniProt P30041)
inactive: [1] -0.027 | filanesib -0.058 | zotarolimus 0.019 | idasanutlin -0.013 | alisertib -0.044 | [2] 0.03 | gefitinib 0.039 | [3] 0.022 | lapatinib -0.051 | pictilisib 0.025

PRKCSH (UniProt K7ELL7)
inactive: [1] 0.013 | filanesib 0.096 | zotarolimus 0.036 | idasanutlin -0.066 | alisertib 0.062 | [2] 0.102 | gefitinib 0.087 | [3] -0.169 | lapatinib -0.008

Reprinted at random: 2 records from the list.
PPP2R5C isoform 5 (UniProt Q13362)
inactive: [1] 0.022 | filanesib -0.126 | zotarolimus 0.031 | idasanutlin -0.137 | alisertib -0.11 | [2] 0.082 | gefitinib -0.018 | [3] -0.012 | lapatinib 0 | pictilisib 0.111

PPP1R14B (UniProt Q96C90)
inactive: [1] 0.039 | filanesib 0.082 | zotarolimus 0.203 | idasanutlin -0.036 | alisertib -0.002 | [2] -0.195 | gefitinib 0.044 | [3] 0.003 | lapatinib 0.124

(list continues)

PPP2R5A (UniProt Q15172)
inactive: [1] 0.034 | filanesib -0.135 | zotarolimus 0.002 | idasanutlin -0.206 | alisertib -0.064 | [2] 0.032 | gefitinib -0.043 | [3] 0.005 | lapatinib 0.047 | pictilisib -0.096

PPP4R2 (UniProt Q9NY27)
inactive: [1] 0.039 | filanesib 0.013 | zotarolimus 0.022 | idasanutlin -0.065 | alisertib -0.011 | [2] -0.079 | gefitinib -0.004 | [3] 0.027 | lapatinib 0.089 | pictilisib -0.055

PRRC1 (UniProt Q96M27)
inactive: [1] -0.034 | filanesib -0.009 | zotarolimus -0.015 | idasanutlin -0.012 | alisertib -0.053 | [2] 0.009 | gefitinib 0.016 | [3] 0.07 | lapatinib -0.022 | pictilisib 0.017

PRMT1 (UniProt Q99873)
inactive: [1] -0.046 | filanesib -0.099 | zotarolimus 0.018 | idasanutlin -0.052 | alisertib -0.005 | [2] 0.02 | gefitinib -0.019 | [3] 0.029 | lapatinib 0.012 | pictilisib -0.015

PRKAG2 (UniProt Q9UGJ0)
inactive: [1] -0.054 | filanesib -0.108 | zotarolimus 0.024 | idasanutlin -0.045 | alisertib -0.101 | [2] -0.072 | gefitinib 0.022 | [3] 0.034 | lapatinib 0.081 | pictilisib -0.037

PRDX4 (UniProt Q13162)
inactive: [1] -0.109 | filanesib -0.066 | zotarolimus -0.026 | idasanutlin -0.037 | alisertib 0.027 | [2] -0.007 | gefitinib -0.014 | [3] 0.055 | lapatinib -0.077 | pictilisib 0.041

PRDX2 (UniProt P32119)
inactive: [1] -0.008 | filanesib -0.031 | zotarolimus 0.005 | idasanutlin -0.003 | alisertib -0.012 | [2] 0.021 | gefitinib 0.006 | [3] 0.074 | lapatinib -0.051 | pictilisib 0.032

PRSS21 (UniProt Q9Y6M0)
inactive: [1] -0.117 | filanesib 0.042 | zotarolimus 0.043 | idasanutlin 0.055 | alisertib -0.071 | [2] 0.018 | gefitinib -0.016 | [3] -0.063 | lapatinib 0.052 | pictilisib 0.015

PRKACB isoform 2 (UniProt P22694)
inactive: [1] -0.045 | filanesib -0.098 | zotarolimus 0.021 | idasanutlin -0.01 | alisertib -0.037 | [2] 0.124 | gefitinib 0.015 | [3] 0.03 | lapatinib -0.018 | pictilisib -0.018

PRKCQ (UniProt Q04759)
inactive: [1] -0.044 | filanesib -0.027 | zotarolimus 0.052 | idasanutlin -0.003 | alisertib -0.018 | [2] -0.206 | gefitinib 0.021 | [3] -0.008 | lapatinib 0.041 | pictilisib -0.053

PPP2R2A isoform 2 (UniProt P63151)
inactive: [1] -0.048 | filanesib -0.049 | zotarolimus -0.057 | idasanutlin -0.014 | alisertib -0.045 | [2] 0.011 | gefitinib 0.001 | [3] 0.058 | lapatinib 0 | pictilisib 0.018

PPP1CB (UniProt P62140)
inactive: [1] 0 | filanesib -0.001 | zotarolimus -0.004 | idasanutlin 0 | alisertib -0.048 | [2] -0.051 | gefitinib 0.034 | [3] 0.043 | lapatinib 0.008 | pictilisib 0.12

PPME1 (UniProt Q9Y570)
inactive: [1] -0.04 | filanesib 0.006 | zotarolimus 0.009 | idasanutlin -0.054 | alisertib -0.019 | [2] -0.034 | gefitinib 0.024 | [3] 0.031 | lapatinib 0.009 | pictilisib 0.076

PPP2CB (UniProt P62714)
inactive: [1] 0.011 | filanesib -0.023 | zotarolimus -0.03 | idasanutlin 0.016 | alisertib -0.041 | [2] 0.007 | gefitinib 0.006 | [3] 0.049 | lapatinib 0.031 | pictilisib 0.039

PPP1R35 (UniProt Q8TAP8)
inactive: [1] 0.003 | filanesib 0.026 | zotarolimus -0.004 | idasanutlin 0.196 | alisertib -0.003 | [2] -0.125 | gefitinib 0.027 | [3] 0.083 | lapatinib 0.011 | pictilisib -0.068

PRELID2 (UniProt Q8N945)
inactive: [1] -0.091

PPP1CC isoform 2 (UniProt P36873)
inactive: [1] 0.074 | filanesib -0.038 | zotarolimus 0.024 | idasanutlin 0.014 | alisertib -0.058 | [2] 0 | gefitinib 0.008 | [3] -0.022 | lapatinib 0.003 | pictilisib -0.01

PPP2R1A (UniProt P30153)
inactive: [1] -0.024 | filanesib -0.101 | zotarolimus 0.024 | idasanutlin -0.046 | alisertib -0.014 | [2] -0.025 | gefitinib 0.004 | [3] 0.008 | lapatinib -0.03 | pictilisib 0.055
